# Assay results as given in patent US20170189504A1, “NOVEL PEPTIDES AND COMBINATION OF PEPTIDES FOR USE IN IMMUNOTHERAPY AGAINST VARIOUS CANCERS” (immatics biotechnologies GmbH, priority 2015, published 2017).
# For some of these results: Expression values are those of the mRNA of the gene that encodes the peptide; a gene is named only where it was looked up.
# Legend:
# [1] = tested on: HLA-A*02; assay: Identification and relative LC-MS quantitation of HLA-A*02-presented tumor-associated peptides on tissue samples (presentation profiles, Tables 13A, 13B, 15, FIG. 1); design: species or system human; key to Presentation score NHL / Presentation score CLL / Presentation score BRCA / Presentation score AML / Presentation score GB / Presentation score NSCLC / Presentation score GBC_CCC / Presentation score UEC / Presentation score MEL / Presentation score OSCAR / Presentation score GC / Presentation score UBC / Presentation score OC / Presentation score RCC / Presentation score CRC / Presentation score PCA / Presentation score HCC / Presentation score PC / Presentation score SCLC: specifically presented on tumors (++++); very highly over-presented on tumors compared to a panel of normal tissues (+++); highly over-presented on tumors compared to a panel of normal tissues (++); over-presented on tumors compared to a panel of normal tissues (+); settings: for Presentation score NSCLC: non-small cell lung cancer (N = 90) vs panel of normal tissues (N = 262); for Peptide Presentation on cancer entities: HLA-A*02-binding tumor-associated peptides
# [2] = tested on: source genes (mRNA); assay: Gene and exon expression of source genes, TCGA tumor samples compared with normal tissue samples (Lonsdale, 2013) (Table 17); design: species or system human; settings: for Over-expression category of source gene (target coverage), BRCA: BRCA = Breast cancer (N = 1104), tumors more than 2-fold above highest 75% percentile of normal tissues; for Over-expression category of source gene (target coverage), READ: READ = Colon and rectal adenocarcinoma (N = 167)
# [3] = tested on: source genes (mRNA); assay: Expression profiling of source genes by in-house RNASeq of tumor and normal tissues (Table 18, FIG. 2); design: species or system human; key: very highly over-expressed in tumors compared to a panel of normal tissues (+++); highly over-expressed in tumors compared to a panel of normal tissues (++); over-expressed in tumors compared to a panel of normal tissues (+); settings: source gene of peptide
# [4] = FIG. 1, A*02 positive samples, only samples with presentation shown
# [5] = Table 13A, cancer entities on which the peptide was found presented
# [6] = Table 13B, presentation on additional cancer entities
substance,measurement,setting,value
8: peptide found in FEN1 (gene looked up) (SIYQFLIAV; listed as Homo sapiens) [compound 8],number of cancer tissues where the peptide was found to be presented,[1]; [4],14
same,number of cell lines where the peptide was found to be presented,[1]; [4],2
same,Presentation score AML,"[1]; HLA-A*02 peptides, acute myeloid leukemia (N = 18) vs panel of normal tissues (N = 262)",++++
same,Presentation score CLL,"[1]; HLA-A*02 peptides, chronic lymphocytic leukemia (N = 17) vs panel of normal tissues (N = 262)",++++
same,Presentation score GBC_CCC,"[1]; HLA-A*02 peptides, gallbladder adenocarcinoma and cholangiocarcinoma (N = 6) vs panel of normal tissues (N = 262)",++++
same,Presentation score NHL,"[1]; HLA-A*02 peptides, non-Hodgkin lymphoma (N = 18) vs panel of normal tissues (N = 262)",++++
same,Presentation score NSCLC,[1]; HLA-A*02 peptides,++++
same,Peptide Presentation on cancer entities,[1]; [5],"NSCLC, CLL, GBC_CCC, AML, NHL"
same,Peptide Presentation on cancer entities,[1]; [6],"UEC, BRCA, CRC, HNSCC"
same,"Target coverage: over-expression category of source gene, LAML","[2]; Acute Myeloid Leukemia (N = 173), cutoff more than 2-fold above highest 75% percentile of normal tissue samples","B (>= 20% of tumors above the cutoff, but <50%)"
same,"Target coverage: over-expression category of source gene, BLCA","[2]; Bladder urothelial carcinoma (N = 408), cutoff more than 2-fold above highest 75% percentile of normal tissue samples",A (>=50% of tumors above the cutoff)
same,"Target coverage: over-expression category of source gene, BRCA","[2]; Breast cancer (N = 1104), cutoff more than 2-fold above highest 75% percentile of high and medium risk normal tissue samples","B (>= 20% of tumors above the cutoff, but <50%)"
same,"Target coverage: over-expression category of source gene, CHOL","[2]; Cholangiocarcinoma (N = 36), cutoff more than 2-fold above highest 75% percentile of normal tissue samples","C (>=5% of tumors above the cutoff, but <20%)"
same,"Target coverage: over-expression category of source gene, READ","[2]; Colon and rectal adenocarcinoma (N = 167), cutoff more than 2-fold above highest 75% percentile of normal tissue samples","B (>= 20% of tumors above the cutoff, but <50%)"
same,"Target coverage: over-expression category of source gene, COAD","[2]; Colon and rectal adenocarcinoma (N = 462), cutoff more than 2-fold above highest 75% percentile of normal tissue samples","B (>= 20% of tumors above the cutoff, but <50%)"
same,"Target coverage: over-expression category of source gene, ESCA","[2]; Esophageal cancer (N = 185), cutoff more than 2-fold above highest 75% percentile of normal tissue samples","B (>= 20% of tumors above the cutoff, but <50%)"
same,"Target coverage: over-expression category of source gene, GBM","[2]; Glioblastoma multiforme (N = 169), cutoff more than 2-fold above highest 75% percentile of normal tissue samples","B (>= 20% of tumors above the cutoff, but <50%)"
same,"Target coverage: over-expression category of source gene, LIHC","[2]; Liver hepatocellular carcinoma (N = 374), cutoff more than 2-fold above highest 75% percentile of normal tissue samples","C (>=5% of tumors above the cutoff, but <20%)"
same,"Target coverage: over-expression category of source gene, LGG","[2]; Lower grade glioma (N = 534), cutoff more than 2-fold above highest 75% percentile of normal tissue samples","C (>=5% of tumors above the cutoff, but <20%)"
same,"Target coverage: over-expression category of source gene, LUAD","[2]; Lung adenocarcinoma (N = 517), cutoff more than 2-fold above highest 75% percentile of normal tissue samples","C (>=5% of tumors above the cutoff, but <20%)"
same,"Target coverage: over-expression category of source gene, LUSC","[2]; Lung squamous cell carcinoma (N = 503), cutoff more than 2-fold above highest 75% percentile of normal tissue samples","B (>= 20% of tumors above the cutoff, but <50%)"
same,"Target coverage: over-expression category of source gene, DLBC","[2]; Lymphoid neoplasm diffuse large B-cell lymphoma (N = 48), cutoff more than 2-fold above highest 75% percentile of normal tissue samples",A (>=50% of tumors above the cutoff)
same,"Target coverage: over-expression category of source gene, OV","[2]; Ovarian serous cystadenocarcinoma (N = 309), cutoff more than 2-fold above highest 75% percentile of normal tissue samples","C (>=5% of tumors above the cutoff, but <20%)"
same,"Target coverage: over-expression category of source gene, SKCM","[2]; Skin cutaneous melanoma (N = 473), cutoff more than 2-fold above highest 75% percentile of normal tissue samples",A (>=50% of tumors above the cutoff)
same,"Target coverage: over-expression category of source gene, STAD","[2]; Stomach adenocarcinoma (N = 415), cutoff more than 2-fold above highest 75% percentile of normal tissue samples","C (>=5% of tumors above the cutoff, but <20%)"
same,"Target coverage: over-expression category of source gene, UCEC","[2]; Uterine corpus endometrial carcinoma (N = 546), cutoff more than 2-fold above highest 75% percentile of normal tissue samples","B (>= 20% of tumors above the cutoff, but <50%)"
same,Expression score OSCAR,[3]; esophageal cancer incl. gastric-esophageal junction (N = 11) vs panel of normal tissues,+
same,Expression score GB,[3]; glioblastoma (N = 24) vs panel of normal tissues,+
same,Expression score NHL,[3]; non-Hodgkin lymphoma (N = 10) vs panel of normal tissues,+
same,Expression score NSCLC,[3]; non-small cell lung cancer (N = 11) vs panel of normal tissues,+
same,Expression score OC,[3]; ovarian cancer (N = 12) vs panel of normal tissues,+
same,Expression score SCLC,[3]; small cell lung cancer (N = 10) vs panel of normal tissues,+
same,Expression score UEC,[3]; uterine cancer (N = 10) vs panel of normal tissues,+
258: peptide found in BCCIP (gene looked up) (LLSERFINV; listed as Homo sapiens) [compound 258],Presentation score HCC,"[1]; HLA-A*02 peptides, hepatocellular carcinoma (N = 16) vs panel of normal tissues (N = 262)",++++
same,Presentation score PCA,"[1]; HLA-A*02 peptides, prostate cancer and benign prostate hyperplasia (N = 39) vs panel of normal tissues (N = 262)",++++
same,Peptide Presentation on cancer entities,[1]; [5],"HCC, PCA"
same,"Over-expression category of source gene (target coverage), BLCA","[2]; BLCA = Bladder urothelial carcinoma (N = 408), same cutoff",A (>=50% of tumors above the cutoff)
same,"Over-expression category of source gene (target coverage), BRCA",[2],A (>=50% of tumors above the cutoff)
same,"Over-expression category of source gene (target coverage), CHOL","[2]; CHOL = Cholangiocarcinoma (N = 36), same cutoff",A (>=50% of tumors above the cutoff)
same,"Over-expression category of source gene (target coverage), COAD","[2]; COAD = Colon and rectal adenocarcinoma (N = 462), same cutoff",A (>=50% of tumors above the cutoff)
same,"Over-expression category of source gene (target coverage), DLBC","[2]; DLBC = Lymphoid neoplasm diffuse large B-cell lymphoma (N = 48), same cutoff",A (>=50% of tumors above the cutoff)
same,"Over-expression category of source gene (target coverage), ESCA","[2]; ESCA = Esophageal cancer (N = 185), same cutoff",A (>=50% of tumors above the cutoff)
same,"Over-expression category of source gene (target coverage), GBM","[2]; GBM = Glioblastoma multiforme (N = 169), same cutoff",A (>=50% of tumors above the cutoff)
same,"Over-expression category of source gene (target coverage), KICH","[2]; KICH = Kidney chromophobe (N = 66), same cutoff",A (>=50% of tumors above the cutoff)
same,"Over-expression category of source gene (target coverage), KIRC","[2]; KIRC = Clear cell kidney carcinoma (N = 534), same cutoff",A (>=50% of tumors above the cutoff)
same,"Over-expression category of source gene (target coverage), KIRP","[2]; KIRP = Papillary kidney carcinoma (N = 291), same cutoff",A (>=50% of tumors above the cutoff)
same,"Over-expression category of source gene (target coverage), LAML","[2]; LAML = Acute Myeloid Leukemia (N = 173), same cutoff",A (>=50% of tumors above the cutoff)
same,"Over-expression category of source gene (target coverage), LGG","[2]; LGG = Lower grade glioma (N = 534), same cutoff",A (>=50% of tumors above the cutoff)
same,"Over-expression category of source gene (target coverage), LIHC","[2]; LIHC = Liver hepatocellular carcinoma (N = 374), same cutoff",A (>=50% of tumors above the cutoff)
same,"Over-expression category of source gene (target coverage), LUAD","[2]; LUAD = Lung adenocarcinoma (N = 517), same cutoff",A (>=50% of tumors above the cutoff)
same,"Over-expression category of source gene (target coverage), LUSC","[2]; LUSC = Lung squamous cell carcinoma (N = 503), same cutoff",A (>=50% of tumors above the cutoff)
same,"Over-expression category of source gene (target coverage), OV","[2]; OV = Ovarian serous cystadenocarcinoma (N = 309), same cutoff",A (>=50% of tumors above the cutoff)
same,"Over-expression category of source gene (target coverage), PAAD","[2]; PAAD = Pancreatic ductal adenocarcinoma (N = 179), same cutoff",A (>=50% of tumors above the cutoff)
same,"Over-expression category of source gene (target coverage), PRAD","[2]; PRAD = Prostate adenocarcinoma (N = 498), same cutoff",A (>=50% of tumors above the cutoff)
same,"Over-expression category of source gene (target coverage), READ",[2]; same cutoff,A (>=50% of tumors above the cutoff)
same,"Over-expression category of source gene (target coverage), SKCM","[2]; SKCM = Skin cutaneous melanoma (N = 473), same cutoff",A (>=50% of tumors above the cutoff)
same,"Over-expression category of source gene (target coverage), STAD","[2]; STAD = Stomach adenocarcinoma (N = 415), same cutoff",A (>=50% of tumors above the cutoff)
same,"Over-expression category of source gene (target coverage), UCEC","[2]; UCEC = Uterine corpus endometrial carcinoma (N = 546), same cutoff",A (>=50% of tumors above the cutoff)
260: peptide found in PLAA (gene looked up) (ILLEKILSL; listed as Homo sapiens) [compound 260],Presentation score CRC,"[1]; HLA-A*02 peptides, colorectal cancer (N = 28) vs panel of normal tissues (N = 262)",++
same,Presentation score NSCLC,[1]; HLA-A*02 peptides,+++
same,Peptide Presentation on cancer entities,[1]; [5],"NSCLC, CRC"
same,Peptide Presentation on cancer entities,[1]; [6],"GC, HCC, PCA, CLL, OC, SCLC, UEC, BRCA, GBC_CCC, MEL, PC, AML, NHL, HNSCC"
same,"Over-expression category of source gene (target coverage), BRCA",[2],"C (>=5% of tumors above the cutoff, but <20%)"
same,"Over-expression category of source gene (target coverage), READ",[2]; same cutoff,"C (>=5% of tumors above the cutoff, but <20%)"
